In the supplement of paper PMC10849652:
This is one part of the list.

Chains of the proteins cited; added tags and fusions are not shown. Lines headed by an entry give the natural chain unless they say otherwise; changes in a name come on top.
UniProt P54277: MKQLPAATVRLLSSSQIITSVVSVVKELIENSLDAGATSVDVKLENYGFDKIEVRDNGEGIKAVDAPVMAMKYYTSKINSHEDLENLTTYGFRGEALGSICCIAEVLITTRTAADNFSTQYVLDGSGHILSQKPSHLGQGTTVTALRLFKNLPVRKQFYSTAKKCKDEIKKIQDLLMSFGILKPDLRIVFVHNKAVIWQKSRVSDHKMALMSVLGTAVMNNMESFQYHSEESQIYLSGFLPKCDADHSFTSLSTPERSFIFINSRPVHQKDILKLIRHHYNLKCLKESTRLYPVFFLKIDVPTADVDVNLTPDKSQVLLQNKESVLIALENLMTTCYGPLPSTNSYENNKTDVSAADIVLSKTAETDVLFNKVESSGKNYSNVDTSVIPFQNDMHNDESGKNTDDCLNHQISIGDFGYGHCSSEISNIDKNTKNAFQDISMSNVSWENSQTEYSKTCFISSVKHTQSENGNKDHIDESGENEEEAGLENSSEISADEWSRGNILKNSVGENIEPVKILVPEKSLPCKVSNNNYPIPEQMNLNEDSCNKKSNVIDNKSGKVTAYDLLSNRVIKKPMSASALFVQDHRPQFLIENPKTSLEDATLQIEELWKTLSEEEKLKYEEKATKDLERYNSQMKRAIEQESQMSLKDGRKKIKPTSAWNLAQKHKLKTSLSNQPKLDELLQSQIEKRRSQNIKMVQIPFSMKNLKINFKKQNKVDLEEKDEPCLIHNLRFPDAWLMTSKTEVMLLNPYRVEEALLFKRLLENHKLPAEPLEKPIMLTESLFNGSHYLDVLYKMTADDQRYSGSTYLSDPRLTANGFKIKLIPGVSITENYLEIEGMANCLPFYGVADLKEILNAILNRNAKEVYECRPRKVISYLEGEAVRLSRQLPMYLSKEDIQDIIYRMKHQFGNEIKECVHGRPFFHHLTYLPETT
UniProt P00747, whole entry, looked up: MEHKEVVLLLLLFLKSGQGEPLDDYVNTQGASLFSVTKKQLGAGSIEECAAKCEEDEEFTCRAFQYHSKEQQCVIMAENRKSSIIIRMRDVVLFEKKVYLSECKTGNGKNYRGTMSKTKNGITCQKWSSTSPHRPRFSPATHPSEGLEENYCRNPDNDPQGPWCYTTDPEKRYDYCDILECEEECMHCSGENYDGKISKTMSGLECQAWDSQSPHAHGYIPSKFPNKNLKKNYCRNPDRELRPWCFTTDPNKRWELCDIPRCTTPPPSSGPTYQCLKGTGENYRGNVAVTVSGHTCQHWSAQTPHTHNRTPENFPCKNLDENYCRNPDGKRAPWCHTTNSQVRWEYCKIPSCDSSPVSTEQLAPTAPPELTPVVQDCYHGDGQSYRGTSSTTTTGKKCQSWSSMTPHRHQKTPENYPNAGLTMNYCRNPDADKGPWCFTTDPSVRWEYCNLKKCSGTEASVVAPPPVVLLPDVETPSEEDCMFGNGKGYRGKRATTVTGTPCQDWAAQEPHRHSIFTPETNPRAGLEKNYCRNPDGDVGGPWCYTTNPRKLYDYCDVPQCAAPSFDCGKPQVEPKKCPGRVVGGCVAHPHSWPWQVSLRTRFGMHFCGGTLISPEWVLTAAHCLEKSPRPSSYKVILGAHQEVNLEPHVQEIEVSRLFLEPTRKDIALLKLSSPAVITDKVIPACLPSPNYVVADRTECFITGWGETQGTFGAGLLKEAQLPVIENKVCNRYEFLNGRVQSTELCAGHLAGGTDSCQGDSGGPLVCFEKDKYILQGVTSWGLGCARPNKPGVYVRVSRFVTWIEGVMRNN
UniProt Q14651: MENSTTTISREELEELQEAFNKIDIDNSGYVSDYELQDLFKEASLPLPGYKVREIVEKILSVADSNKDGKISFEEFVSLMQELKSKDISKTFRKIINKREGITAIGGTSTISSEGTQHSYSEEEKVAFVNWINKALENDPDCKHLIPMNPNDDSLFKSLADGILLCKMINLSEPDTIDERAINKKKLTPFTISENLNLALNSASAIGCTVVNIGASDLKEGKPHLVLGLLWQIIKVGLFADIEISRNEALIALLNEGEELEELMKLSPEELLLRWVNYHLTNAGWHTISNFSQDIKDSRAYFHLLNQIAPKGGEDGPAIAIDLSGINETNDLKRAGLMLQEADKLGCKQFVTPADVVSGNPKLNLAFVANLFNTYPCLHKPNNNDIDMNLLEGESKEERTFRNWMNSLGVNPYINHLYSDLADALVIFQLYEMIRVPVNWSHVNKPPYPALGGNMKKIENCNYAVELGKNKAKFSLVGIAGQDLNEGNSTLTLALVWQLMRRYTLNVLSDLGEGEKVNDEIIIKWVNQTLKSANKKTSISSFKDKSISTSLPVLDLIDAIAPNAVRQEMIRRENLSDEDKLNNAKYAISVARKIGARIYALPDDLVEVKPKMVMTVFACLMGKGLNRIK
UniProt Q9UHN1: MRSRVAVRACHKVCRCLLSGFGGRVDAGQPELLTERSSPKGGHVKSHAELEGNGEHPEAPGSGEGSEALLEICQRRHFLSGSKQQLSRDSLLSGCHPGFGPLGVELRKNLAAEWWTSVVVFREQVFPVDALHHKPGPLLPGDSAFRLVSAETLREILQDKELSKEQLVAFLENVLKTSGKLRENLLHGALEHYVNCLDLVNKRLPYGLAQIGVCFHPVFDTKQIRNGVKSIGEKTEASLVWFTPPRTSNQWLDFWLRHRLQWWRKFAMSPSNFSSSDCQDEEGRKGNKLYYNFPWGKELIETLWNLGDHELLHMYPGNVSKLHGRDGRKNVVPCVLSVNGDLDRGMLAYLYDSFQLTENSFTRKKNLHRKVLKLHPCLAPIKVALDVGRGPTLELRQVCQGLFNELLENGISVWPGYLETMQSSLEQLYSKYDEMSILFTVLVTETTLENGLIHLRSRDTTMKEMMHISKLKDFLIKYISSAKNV
UniProt Q8IWE5: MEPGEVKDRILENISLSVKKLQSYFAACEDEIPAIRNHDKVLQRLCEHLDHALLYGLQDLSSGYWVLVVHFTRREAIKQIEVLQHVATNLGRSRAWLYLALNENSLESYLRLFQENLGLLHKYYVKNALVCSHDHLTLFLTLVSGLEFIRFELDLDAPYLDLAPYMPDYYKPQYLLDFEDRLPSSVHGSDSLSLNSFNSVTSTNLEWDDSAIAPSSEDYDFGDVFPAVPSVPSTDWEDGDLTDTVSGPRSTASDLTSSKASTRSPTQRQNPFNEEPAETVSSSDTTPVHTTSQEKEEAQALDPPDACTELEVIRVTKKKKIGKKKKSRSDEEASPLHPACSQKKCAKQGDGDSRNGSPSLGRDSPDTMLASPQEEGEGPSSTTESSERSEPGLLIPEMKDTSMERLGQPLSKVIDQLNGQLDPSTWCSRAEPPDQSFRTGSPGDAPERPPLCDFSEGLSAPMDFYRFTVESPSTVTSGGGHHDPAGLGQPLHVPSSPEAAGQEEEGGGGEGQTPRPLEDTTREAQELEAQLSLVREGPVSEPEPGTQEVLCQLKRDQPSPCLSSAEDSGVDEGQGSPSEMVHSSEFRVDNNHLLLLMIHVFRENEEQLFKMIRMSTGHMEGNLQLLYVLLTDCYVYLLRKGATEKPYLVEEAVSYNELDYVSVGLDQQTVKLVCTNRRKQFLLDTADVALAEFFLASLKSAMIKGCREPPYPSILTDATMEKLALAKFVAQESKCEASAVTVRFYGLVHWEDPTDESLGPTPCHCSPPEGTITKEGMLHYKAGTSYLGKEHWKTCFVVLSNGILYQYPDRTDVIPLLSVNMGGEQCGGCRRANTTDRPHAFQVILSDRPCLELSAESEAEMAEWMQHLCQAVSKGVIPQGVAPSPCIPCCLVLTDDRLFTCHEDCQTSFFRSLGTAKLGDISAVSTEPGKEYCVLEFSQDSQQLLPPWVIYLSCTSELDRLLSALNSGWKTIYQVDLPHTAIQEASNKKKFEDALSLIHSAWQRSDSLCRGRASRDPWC
UniProt Q9NW61: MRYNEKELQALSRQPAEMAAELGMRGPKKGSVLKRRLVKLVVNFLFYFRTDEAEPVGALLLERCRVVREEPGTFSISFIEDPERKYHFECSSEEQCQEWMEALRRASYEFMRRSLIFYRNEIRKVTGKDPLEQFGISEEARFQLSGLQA
UniProt Q9Y4D7: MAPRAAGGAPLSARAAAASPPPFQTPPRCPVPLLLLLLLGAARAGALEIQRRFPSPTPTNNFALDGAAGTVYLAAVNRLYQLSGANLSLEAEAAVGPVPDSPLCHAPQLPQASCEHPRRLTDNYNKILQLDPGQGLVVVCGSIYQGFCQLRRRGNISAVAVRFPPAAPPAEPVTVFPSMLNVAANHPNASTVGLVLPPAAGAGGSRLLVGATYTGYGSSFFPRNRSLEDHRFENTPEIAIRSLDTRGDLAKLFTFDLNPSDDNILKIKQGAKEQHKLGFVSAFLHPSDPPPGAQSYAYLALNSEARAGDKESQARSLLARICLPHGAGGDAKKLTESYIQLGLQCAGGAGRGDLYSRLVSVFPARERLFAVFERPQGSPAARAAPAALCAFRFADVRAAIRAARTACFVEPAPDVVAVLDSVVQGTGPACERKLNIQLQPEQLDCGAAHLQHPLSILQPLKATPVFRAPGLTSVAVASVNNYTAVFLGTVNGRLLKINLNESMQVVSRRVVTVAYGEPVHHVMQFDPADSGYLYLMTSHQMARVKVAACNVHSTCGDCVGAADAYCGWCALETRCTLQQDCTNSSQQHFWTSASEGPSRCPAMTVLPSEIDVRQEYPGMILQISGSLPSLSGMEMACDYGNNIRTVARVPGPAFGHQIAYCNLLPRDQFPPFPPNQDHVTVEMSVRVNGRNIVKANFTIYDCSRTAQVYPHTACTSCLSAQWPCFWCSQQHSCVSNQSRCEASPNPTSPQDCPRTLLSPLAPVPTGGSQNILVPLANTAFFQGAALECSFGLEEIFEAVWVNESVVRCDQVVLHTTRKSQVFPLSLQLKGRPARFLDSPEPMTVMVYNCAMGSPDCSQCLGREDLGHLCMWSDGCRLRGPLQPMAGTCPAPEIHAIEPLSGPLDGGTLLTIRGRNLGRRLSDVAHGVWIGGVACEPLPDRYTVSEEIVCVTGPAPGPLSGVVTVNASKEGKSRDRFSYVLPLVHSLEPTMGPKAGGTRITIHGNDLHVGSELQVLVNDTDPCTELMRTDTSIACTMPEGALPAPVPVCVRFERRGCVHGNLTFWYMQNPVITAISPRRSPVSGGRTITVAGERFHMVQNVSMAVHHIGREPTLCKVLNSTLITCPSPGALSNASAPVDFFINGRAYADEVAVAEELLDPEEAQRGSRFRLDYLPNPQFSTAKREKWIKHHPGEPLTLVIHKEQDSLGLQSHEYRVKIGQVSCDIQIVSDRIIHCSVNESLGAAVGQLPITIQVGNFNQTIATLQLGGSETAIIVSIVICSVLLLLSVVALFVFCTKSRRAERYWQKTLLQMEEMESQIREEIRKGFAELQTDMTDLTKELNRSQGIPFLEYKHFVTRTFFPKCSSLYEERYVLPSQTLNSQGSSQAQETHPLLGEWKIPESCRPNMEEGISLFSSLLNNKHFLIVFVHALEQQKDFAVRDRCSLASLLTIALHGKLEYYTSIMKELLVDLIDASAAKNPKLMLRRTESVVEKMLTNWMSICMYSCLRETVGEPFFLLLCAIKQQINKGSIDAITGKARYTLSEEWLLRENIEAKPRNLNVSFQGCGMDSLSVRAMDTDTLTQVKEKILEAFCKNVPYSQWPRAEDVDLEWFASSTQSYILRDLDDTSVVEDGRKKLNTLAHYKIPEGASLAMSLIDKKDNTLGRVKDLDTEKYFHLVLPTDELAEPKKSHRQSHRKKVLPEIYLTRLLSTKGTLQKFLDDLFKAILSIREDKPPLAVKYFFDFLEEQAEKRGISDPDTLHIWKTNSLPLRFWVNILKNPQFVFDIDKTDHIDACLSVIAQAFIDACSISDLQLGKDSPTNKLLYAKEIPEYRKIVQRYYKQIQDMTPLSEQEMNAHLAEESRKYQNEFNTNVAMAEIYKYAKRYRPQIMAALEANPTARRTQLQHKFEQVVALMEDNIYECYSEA
UniProt Q8NAT1: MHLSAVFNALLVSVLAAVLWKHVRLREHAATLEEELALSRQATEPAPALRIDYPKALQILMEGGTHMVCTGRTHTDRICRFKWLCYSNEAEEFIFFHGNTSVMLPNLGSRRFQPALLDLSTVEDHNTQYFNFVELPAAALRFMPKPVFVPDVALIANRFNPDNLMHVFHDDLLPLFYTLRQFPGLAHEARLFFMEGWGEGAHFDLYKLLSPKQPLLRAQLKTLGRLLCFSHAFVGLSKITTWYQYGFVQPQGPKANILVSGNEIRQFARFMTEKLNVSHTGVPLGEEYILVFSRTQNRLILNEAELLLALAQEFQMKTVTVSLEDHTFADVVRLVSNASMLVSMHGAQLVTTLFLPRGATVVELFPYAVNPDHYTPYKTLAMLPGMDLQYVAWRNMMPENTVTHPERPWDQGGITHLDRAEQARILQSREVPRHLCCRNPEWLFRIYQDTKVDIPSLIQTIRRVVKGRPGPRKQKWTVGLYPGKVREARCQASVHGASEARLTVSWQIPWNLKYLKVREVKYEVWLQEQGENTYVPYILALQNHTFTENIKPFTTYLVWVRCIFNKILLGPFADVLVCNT

Tests used:
Experiment in all cases: log2 fold change, soluble protein after heating vs DMSO (PISA); higher = thermal stabilisation; K562 lysate, 10 uM; active = over 0.2 and 3.5 SD of the protein, either way, in both replicates (recomputed)
[1] = compound: C1=CC=C(C=C1)[C@H](COC2=CC3=C(C=C2)NC(=O)N3)NC(=O)C4=CC=CN(C4=O)CC5=CC(=C(C=C5)F)F
Outline: (§1)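 Thermal stability, expressed as log-two fold change relative to solvent controls, is given from duplicates. Crude K562 extract in PBS pH 7.4 with 1 mM MgCl2, at 1 mg/mL protein, was treated with 10 μM compound for 30 min and heated in aliquots for 3 min across 48°C-58°C. After pooling, adjustment to 0.5% NP-40 at 4°C and centrifugation at 21,000xg for 90 min, supernatant protein was measured by TMTpro 16plex LC-MS/MS with channel sums equalised.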

[2] = compound: CC1=C(SC2=C1C(=N[C@H](C3=NN=C(N32)C)CC(=O)N)C4=CC=C(C=C4)Cl)C
Outline: as §1

[3] = compound: CC1=C2C(=CC=C1)N=C(N(C2=O)C3=CC=CC=C3C)CN4C=NC5=C(N=CN=C54)N
Outline: as §1

[4] = compound: Cc1sc2c(c1C)C(c1ccc(Cl)cc1)=N[C@@H](CC(=O)OC(C)(C)C)c1nnc(C)n1-2
Outline: as §1

[5] = compound: c1ccc([C@@H]2C[C@H]2NC2CCNCC2)cc1
Outline: as §1

Measured: log2 fold change

POLR2F (UniProt P61218)
inactive: [1] 0.013 | [2] -0.105 | [3] -0.163 | [4] 0.381 | [5] 0.359

POLR2I (UniProt P36954)
inactive: [1] 0.055 | [2] -0.113 | [3] 0.018 | [4] 0.054 | [5] -0.012

PMM1 (UniProt Q92871)
inactive: [1] 0 | [2] 0.203 | [3] 0.099 | [4] -0.027 | [5] 0.023

POLR3B (UniProt Q9NW08)
inactive: [1] -0.025 | [2] 0.014 | [3] 0.014 | [4] 0.016 | [5] 0.002

PPFIA1 (UniProt Q13136)
inactive: [1] -0.002 | [2] 0.001 | [3] 0.009 | [4] -0.037 | [5] -0.011

POT1 (UniProt Q9NUX5)
inactive: [1] -0.038 | [2] -0.015 | [3] -0.158 | [4] 0.07 | [5] 0.086

PPAT (UniProt Q06203)
inactive: [1] 0.015 | [2] 0.023 | [3] 0 | [4] -0.006 | [5] 0.048

POLD2 (UniProt P49005)
inactive: [1] 0.021 | [2] 0.02 | [3] -0.04 | [4] 0.021 | [5] 0.003

PMS1 (UniProt P54277)
inactive: [1] -0.011 | [2] -0.056 | [3] 0 | [4] -0.06 | [5] -0.006

PLRG1 (UniProt O43660)
inactive: [1] 0.057 | [2] 0.009 | [3] 0.02 | [4] -0.006 | [5] -0.035

POLA2 (UniProt Q14181)
inactive: [1] 0.01 | [2] 0.037 | [3] -0.04 | [4] -0.005 | [5] 0.026

POLR2H (UniProt P52434)
inactive: [1] -0.017 | [2] -0.013 | [3] 0.091 | [4] 0.031 | [5] -0.008

POLR1D (UniProt P0DPB6)
inactive: [1] 0.003 | [2] -0.016 | [3] -0.025 | [4] -0.048 | [5] -0.008

PNP (UniProt P00491)
inactive: [1] 0.039 | [2] -0.031 | [3] 0.01 | [4] 0.007 | [5] 0.009

POGK (UniProt Q9P215)
inactive: [1] -0.142 | [2] 0.13 | [3] -0.008 | [4] 0.016 | [5] -0.068

PNPT1 (UniProt Q8TCS8)
inactive: [1] 0.027 | [2] 0.043 | [3] 0.017 | [4] 0 | [5] 0.013

PLG (UniProt P00747)
inactive: [1] -0.036 | [2] 0.024 | [3] -0.065 | [4] -0.181 | [5] -0.018

POFUT2 (UniProt Q9Y2G5)
inactive: [1] 0.043 | [2] -0.005 | [3] -0.073 | [4] -0.051 | [5] -0.002

2 successive entries already listed:
PNP (UniProt P00491)
inactive: [1] 0.039 | [2] -0.031 | [3] 0.01 | [4] 0.007 | [5] 0.009

POGK (UniProt Q9P215)
inactive: [1] -0.142 | [2] 0.13 | [3] -0.008 | [4] 0.016 | [5] -0.068

(further entries)

PLS1 (UniProt Q14651)
inactive: [1] 0.047 | [2] -0.008 | [3] -0.001 | [4] -0.018 | [5] -0.016

PLK1 (UniProt P53350)
inactive: [1] 0.033 | [2] 0.042 | [3] 0.052 | [4] -0.026 | [5] 0.084

POLG2 (UniProt Q9UHN1)
inactive: [1] 0.051 | [2] -0.056 | [3] 0.025 | [4] 0.019 | [5] -0.041

POLR3F (UniProt Q9H1D9)
inactive: [1] 0.019 | [2] -0.016 | [3] -0.023 | [4] -0.011 | [5] 0.002

POGLUT2 (UniProt Q6UW63)
inactive: [1] -0.009 | [2] -0.02 | [3] 0.018 | [4] 0.015 | [5] -0.005

PLIN2 (UniProt Q99541)
inactive: [1] -0.138 | [2] 0.015 | [3] 0.021 | [4] -0.018 | [5] 0.014

POLR3D (UniProt P05423)
inactive: [1] -0.005 | [2] 0.023 | [3] -0.015 | [4] -0.067 | [5] -0.033

PLEKHM2 (UniProt Q8IWE5)
inactive: [1] -0.001 | [2] 0.031 | [3] 0.005 | [4] -0.039 | [5] 0.003

PLOD1 (UniProt Q02809)
inactive: [1] 0 | [2] 0.019 | [3] -0.004 | [4] -0.01 | [5] 0.017

PLEKHJ1 (UniProt Q9NW61)
inactive: [5] 0.12

PLXND1 (UniProt Q9Y4D7)
inactive: [1] -0.039 | [2] 0.082 | [4] 0.029

PNMT (UniProt P11086)
inactive: [3] 0.273

POMGNT2 (UniProt Q8NAT1)
inactive: [3] -0.186 | [4] -0.032 | [5] -0.096
